Reference: patent publication US20230295729A1, “METHODS FOR DETECTING AND TREATING PROGESTERONE-RESISTANT INFERTILITY” (The Feinstein Institutes for Medical Research, priority 2022, published 2023)
At least one compound was matched to its structure with a doubt left.

System: endometrial stromal cells (eSCs)
Test: Decidualization of menstrual effluent-derived eSCs induced by cAMP ± MPA, IGFBP1 and PRL by ELISA
Format: cell-based, human
Settings: comparators tested in the same eSC system as quercetin
Description: Methods: eSCs were isolated from menstrual effluent (ME) obtained from healthy controls and surgically diagnosed endometriosis cases. To induce decidualization, passage 2-3 eSCs DMEM 2% MSC-FBS were treated with dibutryl-cAMP (cAMP, 0.5 mM)±10^-7 M medroxyprogesterone acetate (MPA) for 48 hr. eSCs were pre-treated with vehicle or quercetin (25 μM) 4 hr prior to decidualization. PRL and IGFBP1 protein and mRNA in the culture supernatants and cells, respectively, were assessed by ELISA and RT-qPCR, respectively. Endometrial stromal cells (eSCs) were isolated and grown in DMEM 10% MSC-FBS, PSQ, normocin. Passage 2-3 eSCs were split into 96 well plates or 6-well plates in DMEM 10% MSC-FBS. […] Decidualization was assessed by measuring IGFBP1 and/or PRL levels in the culture supernatants by ELISA. Progesterone sensitivity was also assessed by measuring progesterone-induced genes. […]
Roughly 30-50% of endometriosis patient experience infertility. […] We assessed the effect of quercetin on decidualization and progesterone sensitivity using eSCs. […] PRL and IGFBP1 protein and mRNA in the culture supernatants and cells, respectively, were assessed by ELISA and RT-qPCR, respectively. Progesterone sensitivity was also assessed by measuring progesterone-induced genes, PLZF and IHH. […]

## C[C@@H]1C[C@H]2[C@@H]3CCC4=CC(=O)C=C[C@]4(C)[C@@]3(F)[C@@H](O)C[C@]2(C)[C@@]1(O)C(=O)CO [dexamethasone, reference compound]
  potentiation of decidualization: did not potentiate decidualization
